Reference: PubChem BioAssay AID1794845 (National Center for Advancing Translational Sciences (NCATS), 2023)
The whole screen tested about 6,900 compounds, of which fewer than 10 were called active. The call rests on the fitted dose curve; in most records, active means well fitted curve in the direction sought with a large enough effect; inconclusive means small, poorly fitted or top-dose-only effect, or another doubt; inactive means no such curve, though single readings can be large or run the other way. The list shows a part of the results.

The chains behind the UniProt entries cited, without tags or fusion partners. Where a name states a change or a piece, a line headed by the entry shows the natural chain unless it says otherwise.
UniProt C7C422: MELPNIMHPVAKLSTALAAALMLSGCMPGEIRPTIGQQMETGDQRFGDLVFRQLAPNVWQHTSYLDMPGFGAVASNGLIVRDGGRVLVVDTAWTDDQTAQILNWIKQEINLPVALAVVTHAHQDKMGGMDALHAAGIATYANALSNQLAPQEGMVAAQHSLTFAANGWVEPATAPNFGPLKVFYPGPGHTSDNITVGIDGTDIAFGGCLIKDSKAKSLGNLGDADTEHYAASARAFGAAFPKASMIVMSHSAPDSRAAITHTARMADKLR

Molecular target: Metallo-beta-lactamase type 2 (Klebsiella pneumoniae) (UniProt C7C422)
Assay: qHTS to identify inhibitors of the New Delhi Metallo-beta-lactamase (NDM): primary screen against the NCATS Gemini Collection; further: % of control where 0% means no effect
Conditions: NDM-1 enzyme, meropenem hydrolysis, absorbance 300 nm; at 38.4 µM (top of the series) unless noted
Outline: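 Meropenem hydrolysis (50 uM final) by 2 nM NDM-1 read as 300 nm absorbance after 30 min, following >30 min compound–enzyme preincubation in HEPES pH 7.0 with 1 uM ZnSO4 and 0.01% Tween20.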

Activity % (negative = inhibition), inactive:
COc1ccc(-c2cc(C(=O)NCC3CC3)c3c(C4CCNC4)noc3n2)cc1 (stereo unspecified) -1.11%, O=C(C1CCCN(c2cnn(Cc3ccccc3)c(=O)c2)C1)N1CCCN(c2ncccn2)CC1 (stereo unspecified) -1.04%, COc1ccc(CNC(=O)[C@H]2CNC[C@H](C(=O)N3CCCC3)C2)c(F)c1F 0.352%, CC(=O)NC1(C)CCCN(Cc2cc(-c3c(C)noc3C)cs2)C1 (stereo unspecified) 44.6% [at 57.5 µM], CCCNC(=O)N1CCc2nc(N3CCN(C)CC3)sc2C1 5.25%, CCOc1ccc(-c2ccnc(NC[C@@H]3CCCO3)n2)cc1C(=O)O 10.2%, O=C(c1ccc(C(F)(F)F)cc1)N1CCCC(C(=O)N2CCC(N3CCOC3=O)CC2)C1 (stereo unspecified) 2.03%, OCCC1CCN(c2ccc(-c3nc(CCCc4ccccc4)no3)cn2)CC1 11.7%, Cc1ccsc1C(=O)N1CCC(c2nc(CCOCC3CC3)no2)C1 (stereo unspecified) -4.81%, O=C(O)C1CCc2nnc(C3CCCN([S+](=O)([O-])c4cccc(C(F)(F)F)c4)C3)n21 (stereo unspecified) 1.06%, C[C@@H](NC(=O)C1CCCC1)c1onc(-c2cccnc2)c1C(=O)O 13.7% [at 57.5 µM], C[S+](=O)([O-])N1CCN(c2nccc(Nc3ccccc3F)n2)CC1 6.45%, O=C(COc1ccccc1)N1C[C@@H]2C[C@H](C1)c1ccc(-c3cccc(C(F)(F)F)c3)c(=O)n1C2 1.7%, CN(C)c1cc(CC2CC(=O)N(c3ccccc3)C2)ncn1 (stereo unspecified) 4.42%, CN1CCCCCCN(C(=O)c2cccn2C)[C@H]2CCC[C@H]2C1=O 0.129%, CCC(O)c1cc2n(n1)CCN(Cc1nccn1Cc1ccccc1)C2 (stereo unspecified) -7.19%, Cn1c(CNC(=O)CC2CCN(S(C)(=O)=O)C2)nc2ccccc21 (stereo unspecified) -2.02%, CCN1C(=O)N(Cc2cccc(OC)c2)C(=O)C12CCN(Cc1nc3ccccc3n1C)CC2 -5.21%, COCC1CN(C(=O)c2ccc(OC)nc2OC)CC12CCNCC2 (stereo unspecified) 0.277%, Cn1nccc1C(=O)N1C[C@@H](COc2ccccc2)[C@H](C(N)=O)C1 0.403%, CN1CCC(Cc2ccc(C(=O)N3CCCC3)cc2)CC1 -12.9%, COc1cccc(COC2CN(CCc3ccccc3)C(=O)CN(C(=O)CN3CCOC3=O)C2)c1 (stereo unspecified) 10.9%, Cc1noc(-c2cn(C3CCN(C(=O)c4ccc(C)s4)CC3)nn2)n1 2.54%, CN(C)CC(O)c1cc2n(n1)CCCN(C(=O)c1cccn1C1CC1)C2 (stereo unspecified) -0.794%, CCCNC(=O)N1CCOC[C@H](Oc2ccc(C(F)(F)F)cn2)C1 -3.91% [at 57.5 µM], O=S(=O)(Cc1cccc(Cl)c1)NCCc1noc(-c2ccccc2)n1 -1.47%, O=C(NCc1nnc2n1CCCCC2)C1CC2(CCNCC2)CN1 (stereo unspecified) -2.67%, O=C(c1ccccn1)N1CC(F)(F)C[C@H]1c1nc(-c2ncccn2)no1 0.767%, O=C(NCC1CCCO1)c1cc(-c2ccccc2F)cc2c1OCCN2Cc1cccnc1 (stereo unspecified) 2.1%, CN(C(=O)c1ccccc1)C1CCOc2ccccc21 (stereo unspecified) 11.8% [at 57.5 µM], COc1ccccc1OC1CCN(Cc2ccccc2C#N)CC1 -5.98%, COc1ccc(C2(C(=O)N3CCOCC3)CCOCC2)cc1 2.32%, O=C(NCC1CCC(=O)N(Cc2ccccc2)CC1)C1CCCCC1 (stereo unspecified) 2.91%, CN(C)S(=O)(=O)N1CCC(Oc2ccc(C(=O)NCCc3ccncc3)cc2)CC1 10.4%, Cn1nc(C2CCCC2)cc1N[S+](=O)([O-])c1ccccc1 10.5% [at 57.5 µM], COCCN1C(=O)CC[C@]2(C(=O)NCc3cccs3)CCCC[C@@H]12 -0.247%, C[S+](=O)([O-])N1CC2(CCCCN2Cc2ccccn2)Cc2ccccc21 (stereo unspecified) 1.72%, CCCCN1CCN(C(=O)C2(c3ccc(NS(C)(=O)=O)cc3)CCCCC2)CC1 6.62%, CC1CCN(CC2CCCCCN2C(=O)CC2CCCC2)CC1 (stereo unspecified) -2.16%, COc1cccc(CNC(=O)c2cn3cc(-c4cccc(OC)c4)sc3n2)c1 25.5%, C[C@]1(CO)[C@H]2Cc3sc(NC(=O)c4ccco4)nc3[C@@H](CC(=O)NC3CCCC3)[C@]2(C)CC[C@H]1O 14%, CN(C)CCC(=O)N1Cc2ccccc2CC2(CCCN2Cc2cccnc2)C1 (stereo unspecified) 0.168%, COCC1CN(C)CC12CCN(C(=O)COc1cccc(C)c1)CC2 (stereo unspecified) 0.322%, CC(C)c1noc(-c2ccn3c(CNC(=O)c4ccoc4)nnc3c2)n1 4.33%, O=C1Nc2ccccc2CC12CCCN(C1COC1)C2 (stereo unspecified) 2.76% [at 57.5 µM], COc1ccccc1CNC(=O)c1cc2c(N3CCSCC3)nc(C)cn2n1 22.7%, CC1(C)[C@H](Cc2cc(CC3CCCCC3)on2)C[C@@H]1NC1CCOCC1 4.65% [at 57.5 µM], O=C(c1ccc(F)cc1Cl)N1CCN(C(=O)c2nnn3c2COC(c2ccccc2)C3)CC1 (stereo unspecified) -0.584%, CC1(C(=O)O)CCN(C(=O)c2cccc(Cl)c2)CC1 -12.5% [at 57.5 µM], CNc1nccnc1-c1cccc(CN2CCOCC2)c1 22.6%, COCCN1CC(CO)C2(CCN(C(=O)Cc3c(C)noc3C)CC2)C1 (stereo unspecified) -0.0207%, Cc1cccc(-n2cc(CN(C)C(C)c3ccon3)c(-c3cccc(F)c3)n2)c1 (stereo unspecified) 16%, CN(CCc1ccccn1)[C@H]1[C@@H]2OC[C@@H](O2)[C@@H](NCc2ccncc2)[C@@H]1O 24.8% [at 57.5 µM], O=C1NCC2(CCCN(C(=O)c3cnc4c(O)cccn4c3=O)C2)O1 (stereo unspecified) 41.7%, Cc1cc(CNC(=O)Cc2nonc2C)c2[nH]c(-c3ccccc3)c(C)c2c1 25.4%, c1ccc(OCCCCN2CCOCC2)c(CNC2CCNC2)c1 (stereo unspecified) 4.61%, COc1ccc(Cl)cc1NC(=O)CCC1CCCN(C(=O)CCc2scnc2C)C1 (stereo unspecified) 5.38%, CN(C)C(=O)N1C[C@@H]2CN(C3CCOCC3)C[C@]2(C(=O)O)C1 -0.344%, CC(C)c1cc(C(=O)N2C[C@@H](C)[C@](O)(C3CC3)C2)nc2ncnn12 15.3%, O=C(Nc1cc(C2CC2)nn1-c1ccccc1)c1ccc(C(F)(F)F)cc1 15.5%, CCOc1ccc(CN2CCC(c3nnc(Cn4cncn4)n3C)CC2)cn1 -10.3%, CCN1C(=O)CCc2cc(NS(=O)(=O)c3cn(C)c(C)n3)ccc21 0.117%, CN(Cc1ccc(-n2cccn2)cc1)Cc1nc(Cc2cccc(F)c2)no1 -7.28%, CCC(C(=O)N1CCc2onc(-c3ccc(F)c(F)c3)c2C1)n1cccn1 (stereo unspecified) -11.8%, Cc1ccccc1N(C)C1CN([S+](=O)([O-])c2c(C)noc2C)C1 2.62%, CCO[C@H]1CN(C2CCN(c3ccc4c(c3)CCC4)CC2)C[C@@H]1O -1.85%, OCC1CN(c2ccncn2)CC12CCN(Cc1cc(F)c(F)c(F)c1)CC2 (stereo unspecified) 3.17%, COc1cccc2c1OCCCN(Cc1cn(-c3ccccc3)nn1)C2 -5.51%, O=C(CC[C@@H]1CNC(=O)[C@@H]2C[C@H](NCc3ccccn3)CN12)NCc1ccccc1 3.11% [at 57.5 µM], CCC(CC)NC(=O)[C@@H]1COCC(=O)N1Cc1ccc(OC)cc1OC -2.73%, COc1ccc(CN2CCCC3(Cc4ccccc4CNC3=O)C2)c(OC)n1 (stereo unspecified) 11.1%, COCCNC(=O)N1CCCC(CNC(=O)c2cccc3ccccc23)C1 (stereo unspecified) 3.38%, CS(=O)(=O)c1ccc(OCC2(CNCc3cccc(C(F)(F)F)c3)C[C@@H](O)[C@@H](O)C2)cc1 (stereo partly specified) -1.18%, COC1C(=O)N(c2cccc(F)c2)C12CCN(S(=O)(=O)c1cccs1)CC2 (stereo unspecified) 7.57%, CCc1nc(NCCOC)ncc1C(=O)O 19%, COc1ccc(OCC(O)CN2CCC(=O)N(CC3CC3)Cc3cc(OC)ccc32)cc1 (stereo unspecified) 2.48%, O=C(Nc1ccccc1Cl)N1CCC(n2cc(C3CCCC3)nn2)CC1 -0.321%, COC(=O)NCC(=O)N1CC[C@@H]2[C@@H](CCC(=O)N2CCc2ccccc2)C1 -4.62%, COCC(=O)N1CC2(CCCCC2)CC1COc1ccc(OC)cc1 (stereo unspecified) 5.86%, O=c1n(-c2ccncc2)nc2n1CCN(Cc1ccsc1)C2 1.1% [at 57.5 µM], Cc1ncsc1CN(Cc1ccccc1)C(=O)c1cn(CCC2CCCCC2)nn1 -2.52%, CC(C)NS(=O)(=O)c1ccc2c(c1)nc(-c1cc(C(C)(C)C)[nH]n1)n2C(C)C 29.2%, CN1C[C@@H](NC(=O)Nc2ccccc2)C[C@H]1c1nc(Cc2ccccc2)no1 7.9% [at 57.5 µM], Cc1nn(CCO)cc1-c1c(-c2ccccc2)ncn1CC(=O)O 23.9%, COc1cccc(CN2C(=O)CCCCC2C(=O)NCCc2c[nH]c3ccc(OC)cc23)c1 (stereo unspecified) -5.23%, COCC(=O)Nc1ncncc1-c1noc([C@@H]2CCCN2Cc2cc(OC)c(OC)c(OC)c2)n1 7.1%
